In patent publication US20050276757A1 one finds binding data, which are given here for two substances.

By UniProt entry, the sequences of proteins in these tests, tags left out.
UniProt Q8N4C8: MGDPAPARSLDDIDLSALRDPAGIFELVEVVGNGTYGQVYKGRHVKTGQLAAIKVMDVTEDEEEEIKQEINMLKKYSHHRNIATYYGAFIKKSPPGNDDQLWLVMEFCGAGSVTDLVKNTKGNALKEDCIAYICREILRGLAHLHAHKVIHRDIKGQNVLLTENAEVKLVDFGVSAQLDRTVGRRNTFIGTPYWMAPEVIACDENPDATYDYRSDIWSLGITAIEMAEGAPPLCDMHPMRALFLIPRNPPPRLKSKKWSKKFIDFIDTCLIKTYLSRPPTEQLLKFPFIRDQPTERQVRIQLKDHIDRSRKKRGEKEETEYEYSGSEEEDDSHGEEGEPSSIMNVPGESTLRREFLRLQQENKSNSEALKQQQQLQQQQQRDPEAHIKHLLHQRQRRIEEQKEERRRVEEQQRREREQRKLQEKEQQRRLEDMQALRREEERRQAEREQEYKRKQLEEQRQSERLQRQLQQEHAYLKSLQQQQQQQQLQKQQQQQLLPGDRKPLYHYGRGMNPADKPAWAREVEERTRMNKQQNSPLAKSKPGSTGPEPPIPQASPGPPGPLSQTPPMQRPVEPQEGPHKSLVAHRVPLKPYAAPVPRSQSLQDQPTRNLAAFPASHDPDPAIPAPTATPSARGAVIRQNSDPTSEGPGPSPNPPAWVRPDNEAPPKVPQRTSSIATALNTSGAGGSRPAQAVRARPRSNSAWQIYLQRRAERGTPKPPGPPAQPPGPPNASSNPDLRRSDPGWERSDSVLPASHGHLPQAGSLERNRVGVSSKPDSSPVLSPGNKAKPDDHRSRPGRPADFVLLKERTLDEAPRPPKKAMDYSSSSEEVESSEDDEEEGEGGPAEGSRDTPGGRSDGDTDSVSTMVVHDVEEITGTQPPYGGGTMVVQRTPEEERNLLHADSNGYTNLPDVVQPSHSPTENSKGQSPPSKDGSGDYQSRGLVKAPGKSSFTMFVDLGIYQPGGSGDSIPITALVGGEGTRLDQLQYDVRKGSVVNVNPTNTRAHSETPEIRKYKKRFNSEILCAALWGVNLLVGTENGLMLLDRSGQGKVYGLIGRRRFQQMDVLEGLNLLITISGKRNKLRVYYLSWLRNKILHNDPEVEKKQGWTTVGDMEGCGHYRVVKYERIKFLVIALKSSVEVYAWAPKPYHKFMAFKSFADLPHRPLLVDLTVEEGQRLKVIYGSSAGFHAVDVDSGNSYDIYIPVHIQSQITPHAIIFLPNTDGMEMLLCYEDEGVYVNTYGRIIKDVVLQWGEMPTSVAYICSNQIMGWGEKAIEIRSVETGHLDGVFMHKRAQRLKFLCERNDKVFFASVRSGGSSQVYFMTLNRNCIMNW
UniProt Q9NYB9: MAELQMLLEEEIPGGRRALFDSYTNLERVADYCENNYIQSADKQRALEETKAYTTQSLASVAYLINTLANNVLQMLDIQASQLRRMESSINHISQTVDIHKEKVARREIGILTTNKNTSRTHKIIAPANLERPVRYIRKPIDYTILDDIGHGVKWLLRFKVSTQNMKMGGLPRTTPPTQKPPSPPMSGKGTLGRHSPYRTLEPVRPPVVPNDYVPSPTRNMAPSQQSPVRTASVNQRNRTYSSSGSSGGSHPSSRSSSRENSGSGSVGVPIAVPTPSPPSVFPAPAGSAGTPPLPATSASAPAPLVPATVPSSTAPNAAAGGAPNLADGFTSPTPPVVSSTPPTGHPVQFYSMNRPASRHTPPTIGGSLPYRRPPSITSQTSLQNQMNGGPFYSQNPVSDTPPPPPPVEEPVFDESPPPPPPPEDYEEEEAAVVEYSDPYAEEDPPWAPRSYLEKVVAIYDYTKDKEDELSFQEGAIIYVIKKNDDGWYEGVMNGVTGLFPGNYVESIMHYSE

In test [1] the target is ZC3 kinase expressed from pcDNA-ZC3 (human) (UniProt Q8N4C8). Kind of test: immunoprecipitation with anti-ZC3 antibody (292B) from co-transfected COS7 cells, blot for Abi.
Test [2] has the same target. Kind of test: co-immunoprecipitation from co-transfected COS-7 cells.
The target in test [3] is HA-tagged Abi-2B expressed from pCGN HA-Abi2B (UniProt Q9NYB9). Kind of test: co-immunoprecipitation from co-transfected COS7 cells.
Test [4] has the same target. In words: immunoprecipitation with anti-HA antibody (12CA5) from co-transfected COS7 cells, blot for ZC3.
The target is the same in test [5]. Kind of test: co-immunoprecipitation from co-transfected COS-7 cells.

Results are given in words; binding and its absence hold for the method and conditions named. For some assays here: In cells and extracts the contact can be indirect. Some entries that bind do so weakly or less than the wild type.

With “HA-tagged Abi-2B expressed from pCGN HA-Abi2B (from UniProt Q9NYB9 1-513)”, the binding result in test [1] and in test [2] was “binds” each time.
For “ZC3 kinase expressed from pcDNA-ZC3 (from UniProt Q8N4C8 1-1332) (enzyme)”, the binding result in test [3], in test [4] and in test [5] was “binds” each time.
